{"source": "patent US10738061B2", "about": "“Inhibitors of RAD52 recombination protein and methods using same” (Drexel University, priority 2015, dated 2020)", "system": "BCR-ABL1-positive BRCA1-deficient 32Dc13 murine hematopoietic cell line that expresses GFP-RAD52", "experiment": "GFP-RAD52 foci formation in response to cisplatin", "format": "cell-based", "conditions": "compound 2.5 μM, cisplatin-treated", "protocol": "GFP-RAD52 foci formation was measured in BCR-ABL1-positive BRCA1-deficient 32Dc13 murine hematopoietic cell line that expresses GFP-RAD52 (Cramer-Morales et al., 2013, Blood 122, 1293-1304). RAD51 foci formation was measured in parental 32Dc13.\nBoth cell lines were cultured in IMDM plus 10% FBS. […] After 4 h of incubation, the cells were treated with 3 μg/mL cisplatin for 16 h. Following cisplatin treatment, cytospins were prepared using polylysine coated slides (Thermo Scientific). DNA was counterstained with DAPI. To detect RAD51 foci, cells were stained with an anti-RAD51 antibody (Thermo Scientific), followed by a secondary antibody conjugated with AlexaFluor 594. RAD51 and GFP-RAD52 foci were visualized with an inverted Olympus IX70 fluorescence microscope equipped with a Cooke Sensicam QE camera (The Cooke Co., Auburn Hills, Mich., USA). Images from 25-60 cells/group were processed using SlideBook 3.0 (Intelligent Imaging Innovation).\nIn response to DNA damage, RAD52 accumulates in the nucleus forming distinct structures known as foci (Essers et al., 2002, EMBO J. 21, 2030-2037; Liu et al., 2000, EMBO Rep 1, 85-90). The foci represent RAD52 complexes with DNA repair intermediates. Inhibitors of RAD52 may decrease RAD52 foci formation by disrupting its interaction with DNA substrates.", "note": "Some of these results come from one statement about several compounds together.", "data": [{"smiles": "COc1ccc(OC)c(Nc2nc(NCCCO)c3ccccc3n2)c1", "note": "[D-G23, 3-((2-((2,5-dimethoxyphenyl)amino)quinazolin-4-yl)amino)propan-1-ol]", "values": [{"measurement": "decrease of the fraction of cells with RAD52 foci", "value": "2.0-2.5 fold"}]}]}
